These results are taken from US20180362935A1, “A renal cell line with stable transporter expression” (Stichting Katholieke Universiteit, priority 2015, published 2018).

As a reminder, the IC50 is the concentration needed to halve the response being measured.

The target of one series is T1, OAT1 (Homo sapiens, UniProt Q4U2R8).
T1 sequence (Q4U2R8 1-550 isoform Q4U2R8-2): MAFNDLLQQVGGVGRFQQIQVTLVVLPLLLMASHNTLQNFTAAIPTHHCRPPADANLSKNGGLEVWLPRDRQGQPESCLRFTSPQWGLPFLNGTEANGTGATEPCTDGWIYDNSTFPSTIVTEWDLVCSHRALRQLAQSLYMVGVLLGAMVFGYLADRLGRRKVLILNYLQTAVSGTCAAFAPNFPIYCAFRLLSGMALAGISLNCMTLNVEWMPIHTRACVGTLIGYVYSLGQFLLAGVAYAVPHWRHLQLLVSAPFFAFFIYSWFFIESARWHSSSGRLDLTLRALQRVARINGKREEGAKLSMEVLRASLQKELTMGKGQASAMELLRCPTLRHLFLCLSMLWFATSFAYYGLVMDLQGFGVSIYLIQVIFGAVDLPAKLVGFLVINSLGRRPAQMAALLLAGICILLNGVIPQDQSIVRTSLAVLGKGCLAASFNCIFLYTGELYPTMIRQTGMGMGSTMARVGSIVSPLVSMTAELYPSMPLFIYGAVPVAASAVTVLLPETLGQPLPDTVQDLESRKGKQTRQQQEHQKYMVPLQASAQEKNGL

The target in a further series is T2, OAT3 (Homo sapiens, UniProt Q8TCC7).
T2 sequence (Q8TCC7 1-542): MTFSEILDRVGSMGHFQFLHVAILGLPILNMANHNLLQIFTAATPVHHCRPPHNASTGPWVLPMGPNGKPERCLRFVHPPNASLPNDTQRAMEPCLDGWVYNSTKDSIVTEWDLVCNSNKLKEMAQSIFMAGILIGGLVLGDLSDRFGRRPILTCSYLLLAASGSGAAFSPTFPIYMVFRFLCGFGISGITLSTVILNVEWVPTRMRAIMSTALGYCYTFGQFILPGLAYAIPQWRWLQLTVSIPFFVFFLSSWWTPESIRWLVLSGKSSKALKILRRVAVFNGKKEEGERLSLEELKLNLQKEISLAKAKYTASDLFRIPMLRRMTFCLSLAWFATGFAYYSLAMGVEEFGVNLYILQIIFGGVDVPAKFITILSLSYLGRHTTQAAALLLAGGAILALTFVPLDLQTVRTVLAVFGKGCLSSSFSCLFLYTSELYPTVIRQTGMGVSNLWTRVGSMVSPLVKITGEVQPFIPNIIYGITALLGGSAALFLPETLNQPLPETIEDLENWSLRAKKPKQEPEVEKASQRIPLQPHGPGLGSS

A further series concerns the target T3, S2-OAT1 (Homo sapiens, UniProt Q4U2R8).
T3 construct: host or cells: S2 cells
T3 sequence (Q4U2R8 1-563): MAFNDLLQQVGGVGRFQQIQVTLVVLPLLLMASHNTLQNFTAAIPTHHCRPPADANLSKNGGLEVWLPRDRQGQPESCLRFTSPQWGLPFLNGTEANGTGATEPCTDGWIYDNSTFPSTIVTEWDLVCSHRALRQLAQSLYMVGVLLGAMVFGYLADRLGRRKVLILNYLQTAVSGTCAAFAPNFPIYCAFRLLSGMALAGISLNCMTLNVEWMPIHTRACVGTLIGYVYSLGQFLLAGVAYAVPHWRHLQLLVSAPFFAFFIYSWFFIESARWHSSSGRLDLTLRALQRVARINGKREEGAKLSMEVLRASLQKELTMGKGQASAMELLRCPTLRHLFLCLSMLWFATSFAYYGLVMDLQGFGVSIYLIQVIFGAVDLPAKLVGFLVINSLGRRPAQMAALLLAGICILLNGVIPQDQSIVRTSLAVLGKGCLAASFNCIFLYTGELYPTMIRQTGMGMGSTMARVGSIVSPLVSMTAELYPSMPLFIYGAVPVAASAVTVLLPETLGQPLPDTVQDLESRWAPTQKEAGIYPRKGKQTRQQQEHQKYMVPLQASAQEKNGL
As to conditions: substrate PAH, S2-OAT1, References 49, 52, 34, 54; read-out: IC50 (literature); cited from earlier work.

A further series deals with T4, CHO-OAT3 (Homo sapiens, UniProt Q8TCC7).
T4 construct: host or cells: CHO
T4 sequence (Q8TCC7 1-542): T2 sequence (Q8TCC7 1-542)
As to conditions: substrate Sitagliptin, CHO-OAT3, Reference 51; read-out: IC50 (literature); cited from earlier work.

For a further series, the target named is S2-OAT3 (Homo sapiens, UniProt Q8TCC7). As to conditions: read-out: IC50 (literature); substrate estrone sulfate, S2-OAT3, References 52, 54; cited from earlier work.

For the molecule `NS(=O)(=O)c1cc(C(=O)O)c(NCc2ccco2)cc1Cl` [Furosemide], the IC50 at OAT1 was 25 ± 4 µM; on OAT3, 2.3 ± 0.4 µM; on S2-OAT1, 18 µM; on CHO-OAT3 it was 1.7 µM; at S2-OAT3, 17.3 µM.
